Laboratory results from US20110293599A1.
Results are given in words; binding and its absence hold for the method and conditions named. Binding seen in cells or lysates may run through a third protein. Some results given as binding are weak or reduced against the parent protein; the word gives no strength.

Sequences of proteins named here, by UniProt entry; tags and fusion partners are left off. A change or cut given only in a name is not applied to a line headed by its entry.
UniProt P10085: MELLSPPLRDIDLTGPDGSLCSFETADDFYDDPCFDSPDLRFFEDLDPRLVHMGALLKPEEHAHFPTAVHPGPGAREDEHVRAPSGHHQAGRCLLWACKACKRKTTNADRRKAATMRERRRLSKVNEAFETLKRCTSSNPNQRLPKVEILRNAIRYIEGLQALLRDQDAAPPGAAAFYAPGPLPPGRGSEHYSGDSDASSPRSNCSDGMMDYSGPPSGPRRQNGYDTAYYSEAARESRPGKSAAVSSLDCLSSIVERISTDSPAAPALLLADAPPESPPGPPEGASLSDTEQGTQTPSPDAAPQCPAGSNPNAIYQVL
UniProt Q9EPK5: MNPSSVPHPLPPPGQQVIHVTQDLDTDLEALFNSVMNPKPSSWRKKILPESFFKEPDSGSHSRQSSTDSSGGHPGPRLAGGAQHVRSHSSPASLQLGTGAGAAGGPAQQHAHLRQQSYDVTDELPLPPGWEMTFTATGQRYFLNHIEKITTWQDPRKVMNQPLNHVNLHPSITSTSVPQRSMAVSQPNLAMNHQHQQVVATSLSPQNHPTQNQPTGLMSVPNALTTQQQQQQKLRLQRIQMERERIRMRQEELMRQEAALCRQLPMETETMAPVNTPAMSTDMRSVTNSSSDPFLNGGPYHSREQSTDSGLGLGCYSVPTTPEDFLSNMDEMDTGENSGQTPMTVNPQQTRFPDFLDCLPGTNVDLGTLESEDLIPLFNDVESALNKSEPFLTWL

Assays:
[1] = biological target: Myc-tagged MyoD, full length 318 aa (FL) (UniProt P10085); assay: co-immunoprecipitation from 293T cells, Flag-M2 beads, anti-Flag and anti-MyoD immunoblot
[2] = biological target: Myc-tagged MyoD, full length 318 aa (FL) (UniProt P10085); assay: co-immunoprecipitation from 293T cells, Flag-M2 beads, MyoD immunoblot
[3] = biological target: Flag-tagged TAZ (transcriptional coactivator with PDZ-binding motif), full length (1-395 aa) (Mus musculus (Mouse)) (UniProt Q9EPK5); assay: co-immunoprecipitation from 293T cells, Flag-M2 beads, immunoblot
[4] = biological target: Myc-tagged MyoD, full length 318 aa (FL) (UniProt P10085); assay: co-immunoprecipitation from 293T cells, Flag-M2 beads, MyoD immunoblot (legend of FIG. 4)
[5] = biological target: endogenous MyoD protein of C2C12 cells (mouse) (UniProt P10085); assay: co-immunoprecipitation from differentiating C2C12 cells stably expressing Flag-TAZ, anti-MyoD immunoblot

NT TAZ (aa 1-163) (from UniProt Q9EPK5 1-163)
binding [1]: binds

TAZ truncation ΔN1 (aa 124-395 TAZ) (from UniProt Q9EPK5 124-395)
binding [2]: binds

CT MyoD (aa 162-318), Myc-tagged (from UniProt P10085 162-318)
binding [3]: binds

Flag-tagged TAZ (transcriptional coactivator with PDZ-binding motif), full length (1-395 aa) (from UniProt Q9EPK5 1-395)
binding [4]: binds | binding [2]: binds | binding [5]: binds
